Experimental data: paper PMC10744335
No constants are given. Whether binding was seen depends on the method and setting. Binding seen in cells or lysates may run through a third protein. Some results given as binding are weak or reduced against the parent protein; the word gives no strength. For some of these results: Where a sequence is shown, tags or fusion partners need not be part of it.

By UniProt entry, the sequences of proteins in these tests, tags left out. Where a name states a change or a piece, a line headed by the entry shows the natural chain unless it says otherwise.
UniProt P62140: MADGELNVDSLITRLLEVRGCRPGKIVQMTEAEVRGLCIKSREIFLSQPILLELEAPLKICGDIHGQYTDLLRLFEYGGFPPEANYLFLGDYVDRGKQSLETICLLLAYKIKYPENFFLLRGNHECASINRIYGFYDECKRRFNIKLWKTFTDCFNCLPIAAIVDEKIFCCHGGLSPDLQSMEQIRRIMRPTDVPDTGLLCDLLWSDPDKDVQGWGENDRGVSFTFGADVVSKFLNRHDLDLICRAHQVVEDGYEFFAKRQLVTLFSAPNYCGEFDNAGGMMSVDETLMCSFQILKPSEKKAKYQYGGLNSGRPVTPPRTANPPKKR
UniProt P35240: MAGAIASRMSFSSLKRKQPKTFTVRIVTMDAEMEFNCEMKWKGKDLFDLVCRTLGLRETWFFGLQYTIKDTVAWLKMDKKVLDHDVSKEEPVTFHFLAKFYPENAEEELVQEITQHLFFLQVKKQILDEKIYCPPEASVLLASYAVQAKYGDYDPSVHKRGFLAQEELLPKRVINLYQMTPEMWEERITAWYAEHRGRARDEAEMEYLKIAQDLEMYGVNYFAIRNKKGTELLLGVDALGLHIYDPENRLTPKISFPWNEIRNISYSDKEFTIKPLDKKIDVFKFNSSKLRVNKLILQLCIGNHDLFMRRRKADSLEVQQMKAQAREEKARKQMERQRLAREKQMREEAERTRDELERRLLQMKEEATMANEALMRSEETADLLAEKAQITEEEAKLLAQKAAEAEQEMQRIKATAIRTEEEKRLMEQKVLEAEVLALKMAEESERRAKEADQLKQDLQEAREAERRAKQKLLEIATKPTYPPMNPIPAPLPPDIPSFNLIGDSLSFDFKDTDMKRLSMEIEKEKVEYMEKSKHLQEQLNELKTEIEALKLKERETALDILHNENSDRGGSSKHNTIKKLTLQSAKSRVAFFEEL
UniProt P62136: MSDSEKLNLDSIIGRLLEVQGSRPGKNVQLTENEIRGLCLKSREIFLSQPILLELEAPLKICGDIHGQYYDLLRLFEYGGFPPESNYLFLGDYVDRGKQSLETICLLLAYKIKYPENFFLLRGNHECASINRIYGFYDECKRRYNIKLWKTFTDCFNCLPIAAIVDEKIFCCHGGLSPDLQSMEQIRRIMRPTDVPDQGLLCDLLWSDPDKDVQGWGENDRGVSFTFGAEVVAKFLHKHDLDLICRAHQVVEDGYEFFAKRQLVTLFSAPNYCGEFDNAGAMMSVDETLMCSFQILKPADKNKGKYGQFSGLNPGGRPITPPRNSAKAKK

T1: GST-tagged bacterially expressed TIMAP protein (human) (UniProt Q96T49)
T1 sequence: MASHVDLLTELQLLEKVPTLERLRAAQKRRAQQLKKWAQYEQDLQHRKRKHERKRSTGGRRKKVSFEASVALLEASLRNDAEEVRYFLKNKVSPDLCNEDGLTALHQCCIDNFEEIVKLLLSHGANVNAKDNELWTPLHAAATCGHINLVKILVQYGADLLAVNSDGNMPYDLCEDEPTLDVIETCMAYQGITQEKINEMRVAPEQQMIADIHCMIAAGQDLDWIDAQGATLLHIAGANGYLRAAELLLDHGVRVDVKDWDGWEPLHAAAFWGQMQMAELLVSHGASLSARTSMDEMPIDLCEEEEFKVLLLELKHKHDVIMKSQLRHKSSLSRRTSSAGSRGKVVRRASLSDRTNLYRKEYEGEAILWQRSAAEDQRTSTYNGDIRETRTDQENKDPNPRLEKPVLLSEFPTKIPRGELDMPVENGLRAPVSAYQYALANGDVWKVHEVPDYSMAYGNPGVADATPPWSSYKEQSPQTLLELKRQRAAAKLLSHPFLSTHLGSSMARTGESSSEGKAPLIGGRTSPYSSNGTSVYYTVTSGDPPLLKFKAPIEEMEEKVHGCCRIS

T2: TIMAP (TGF-β-inhibited membrane associated protein) (human (endogenous in SH-SY5Y)) (UniProt Q96T49)
T2 sequence: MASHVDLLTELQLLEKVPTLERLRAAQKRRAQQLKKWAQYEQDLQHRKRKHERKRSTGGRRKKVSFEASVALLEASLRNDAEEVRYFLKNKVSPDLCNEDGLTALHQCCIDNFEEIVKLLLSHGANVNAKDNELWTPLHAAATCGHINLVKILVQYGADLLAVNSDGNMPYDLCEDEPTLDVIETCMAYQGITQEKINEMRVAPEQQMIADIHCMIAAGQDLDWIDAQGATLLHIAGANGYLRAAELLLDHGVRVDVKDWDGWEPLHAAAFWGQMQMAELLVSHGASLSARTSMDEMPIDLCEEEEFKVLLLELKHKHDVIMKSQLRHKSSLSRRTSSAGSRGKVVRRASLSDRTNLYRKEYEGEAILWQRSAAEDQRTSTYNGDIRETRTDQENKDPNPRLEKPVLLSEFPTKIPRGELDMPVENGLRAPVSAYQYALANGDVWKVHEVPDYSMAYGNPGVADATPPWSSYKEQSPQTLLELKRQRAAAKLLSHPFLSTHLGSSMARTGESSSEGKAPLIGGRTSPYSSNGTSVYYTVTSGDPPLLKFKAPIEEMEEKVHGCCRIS


Assays:
[1] = molecular target: T1, GST-tagged bacterially expressed TIMAP protein (human); assay: pull-down; GST-TIMAP immobilised on glutathione Sepharose 4B beads, incubated with SH-SY5Y cell lysate (50 mM Tris-HCl pH 7.5, 0.2% 2-mercaptoethanol, 0.1% Tween 20, protease inhibitors); Western blot; only the target purified
[2] = molecular target: T2, TIMAP (TGF-β-inhibited membrane associated protein) (human (endogenous in SH-SY5Y)); assay: co-IP; endogenous TIMAP or PP1cδ immunoprecipitated with specific antibodies from SH-SY5Y cell lysates; Western blot for TIMAP, PP1cδ and PP1cα; rabbit IgG as negative control
[3] = molecular target: protein phosphatase 1 catalytic subunit, δ isoform (PP1cδ) (human (endogenous in SH-SY5Y)) (UniProt P62140); assay: as above

| binding [2] | Molecule | also measured |
| --- | --- | --- |
| – | merlin (neurofibromin 2; NF2) (from UniProt P35240 1-595) | binding [1]: binds |
| no binding | protein phosphatase 1 catalytic subunit, α isoform (PP1cα) (from UniProt P62136 1-330) (enzyme) | – |
| binds | protein phosphatase 1 catalytic subunit, δ isoform (PP1cδ) (from UniProt P62140 1-327) (enzyme) | – |
| – | TIMAP (TGF-β-inhibited membrane associated protein) (protein, UniProt Q96T49 1-567) MASHVDLLTELQLLEKVPTLERLRAAQKRRAQQLKKWAQYEQDLQHRKRKHERKRSTGGRRKKVSFEASVALLEASLRNDAEEVRYFLKNKVSPDLCNEDGLTALHQCCIDNFEEIVKLLLSHGANVNAKDNELWTPLHAAATCGHINLVKILVQYGADLLAVNSDGNMPYDLCEDEPTLDVIETCMAYQGITQEKINEMRVAPEQQMIADIHCMIAAGQDLDWIDAQGATLLHIAGANGYLRAAELLLDHGVRVDVKDWDGWEPLHAAAFWGQMQMAELLVSHGASLSARTSMDEMPIDLCEEEEFKVLLLELKHKHDVIMKSQLRHKSSLSRRTSSAGSRGKVVRRASLSDRTNLYRKEYEGEAILWQRSAAEDQRTSTYNGDIRETRTDQENKDPNPRLEKPVLLSEFPTKIPRGELDMPVENGLRAPVSAYQYALANGDVWKVHEVPDYSMAYGNPGVADATPPWSSYKEQSPQTLLELKRQRAAAKLLSHPFLSTHLGSSMARTGESSSEGKAPLIGGRTSPYSSNGTSVYYTVTSGDPPLLKFKAPIEEMEEKVHGCCRIS | binding [3]: binds |
